Reference: PMC7975690

Legend:
Experiment in all cases: pull-down; GST-fusion containing E. coli lysates bound to GST resin (4 °C, 1 h), then incubated with His-tagged CD151 containing lysate overnight at 4 °C; 3 washes with lysis buffer; eluted with 20 mM reduced glutathione; Western blot with anti-GST and anti-His; only the target purified
[1] = target: GST-tagged CEACAM6
[2] = target: GST-tagged LGR5
[3] = target: GST-tagged TGFβ1

Measured: binding

B1: His-tagged CD151 (protein, UniProt P48509 1-253)
chain: MGEFNEKKTTCGTVCLKYLLFTYNCCFWLAGLAVMAVGIWTLALKSDYISLLASGTYLATAYILVVAGTVVMVTGVLGCCATFKERRNLLRLYFILLLIIFLLEIIAGILAYAYYQQLNTELKENLKDTMTKRYHQPGHEAVTSAVDQLQQEFHCCGSNNSQDWRDSEWIRSQEAGGRVVPDSCCKTVVALCGQRDHASNIYKVEGGCITKLETFIQEHLRVIGAVGIGIACVQVFGMIFTCCLYRSLKLEHY
binds: [1] | [2] | [3]

Results are given in words; binding and its absence hold for the method and conditions named. In cells and extracts the contact can be indirect. A result given as binding can be weak or reduced; the word gives no strength. Tags and fused reporters may be left off the sequences shown.
